# Experimental data from article PMC5996148.
# This is one part of the list.
# What was measured:
# Experiment in all cases: protein microarray (ProtoArray v5.0), streptavidin-Alexa Fluor 647
# Conditions in all cases: 3'-biotin; 20 mM Tris (pH 7.5), 5 mM MgCl2, 100 mM KCl, 0.1% Tween-20, A/T-rich and random oligonucleotide blockers; temperature not stated; high values mean tight binding
# [1] = tested on: CEACAM6 (human)
# [2] = tested on: CENTD2 (human)
# [3] = tested on: CHAF1B (human)
# [4] = tested on: CHEK2 (human)
# [5] = tested on: CHN1 (human)
# [6] = tested on: CHRAC1 (human)
# [7] = tested on: CKLFSF5 (human)
# [8] = tested on: CKM (human)
# [9] = tested on: CLCF1 (human)
# [10] = tested on: CLDN18 (human)
sequence,measurement,setting,value
GGGGACAGGGGTATGGGGAGGGG [G4-3 biotinylated (CtG)],binding signal,[1],-0.328 z-score
same,binding signal,[2],-0.33 z-score
same,binding signal,[3],-0.329 z-score
same,binding signal,[4],-0.324 z-score
same,binding signal,[5],-0.333 z-score
same,binding signal,[6],-0.334 z-score
same,binding signal,[7],-0.332 z-score
same,binding signal,[8],-0.337 z-score
same,binding signal,[9],-0.322 z-score
same,binding signal,[10],-0.31 z-score
